From PubChem BioAssay AID540275 (National Center for Advancing Translational Sciences (NCATS), 2011)
Hit rate of the full screen: of about 320,000 compounds, about 620 (0.19%) were called active. Inconclusive results, whose numbers are uncertain, are shown with a selection of clear calls. Cut-off read from the data, not from the text of the source: active = activation above about 80%; inconclusive = between about 30% and that limit; inactive = weaker than that.

Amino acid sequences for entries named in this document (tags omitted).
UniProt Q8NER1, whole entry, looked up: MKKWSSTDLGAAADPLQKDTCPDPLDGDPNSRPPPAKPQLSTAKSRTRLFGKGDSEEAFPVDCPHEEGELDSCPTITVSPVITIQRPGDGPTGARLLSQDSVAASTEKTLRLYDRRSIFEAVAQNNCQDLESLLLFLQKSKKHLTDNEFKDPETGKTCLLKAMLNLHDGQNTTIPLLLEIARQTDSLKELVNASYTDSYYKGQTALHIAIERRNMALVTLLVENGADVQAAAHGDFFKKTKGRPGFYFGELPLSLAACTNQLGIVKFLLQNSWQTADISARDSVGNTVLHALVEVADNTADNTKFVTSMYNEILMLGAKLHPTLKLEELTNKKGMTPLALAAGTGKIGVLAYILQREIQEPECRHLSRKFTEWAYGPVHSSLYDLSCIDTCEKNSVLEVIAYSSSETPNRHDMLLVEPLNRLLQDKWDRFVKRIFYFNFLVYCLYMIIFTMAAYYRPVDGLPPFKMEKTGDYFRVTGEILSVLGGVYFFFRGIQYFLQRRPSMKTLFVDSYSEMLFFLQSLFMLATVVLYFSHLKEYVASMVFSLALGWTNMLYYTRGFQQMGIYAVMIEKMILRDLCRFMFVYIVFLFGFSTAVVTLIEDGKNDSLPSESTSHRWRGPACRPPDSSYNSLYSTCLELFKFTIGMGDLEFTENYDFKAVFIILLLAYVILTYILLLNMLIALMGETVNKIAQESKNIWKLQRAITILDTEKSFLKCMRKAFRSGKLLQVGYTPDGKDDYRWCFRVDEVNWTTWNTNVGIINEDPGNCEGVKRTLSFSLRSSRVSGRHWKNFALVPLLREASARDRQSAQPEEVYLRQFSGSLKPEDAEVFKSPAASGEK

What follows are compounds tested against Transient receptor potential cation channel subfamily V member 1 (Homo sapiens) (UniProt Q8NER1) (assay: HTS Assay for Compounds that Act as Agonists of the Vanilloid Receptor 1). Conditions: TRPV1-expressing cells, Fluo-8 calcium influx, agonist mode; at 8.33 µM, active compounds read high.
How it was run: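 Fluo-8 calcium influx in TRPV1-expressing cells, kinetic read (ex 480/em 520 nm). Compound added and read 3 min for agonist activity, followed by capsaicin at EC20 final and 2 min further read for enhancement.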
Note: 0% is about no effect.

Row | SMILES | activation
1 | CC[C@@H](C)C(N)c1cn([C@@H](CCC(=O)O)C(=O)N2CCNCC2)nn1 (stereo partly specified) | inactive: 0.115%
2 | COc1ccc(CNC(=O)c2cc(-c3cc(C)ccc3O)n[nH]2)cc1 | inconclusive: 47.5%
3 | Cc1nn2c(NCCOCCO)c3c(nc2c1-c1ccccc1)CCC3 | inconclusive: 43.6%
4 | CN1CCN(Cc2c(O)ccc3occ(C(=O)c4ccccc4)c23)CC1 | inactive: -0.497%
5 | O=C1NCN(c2ccccc2)C12CCN(c1nnnn1-c1ccccc1)CC2 | inconclusive: 36.5%
6 | O=C(NCc1ccc(Cl)cc1)c1cc2c(s1)CS(=O)(=O)C2 | inconclusive: 66.1%
7 | CC(=O)Nc1cccc(C(=O)/C=C/c2ccc(Br)cc2)c1 | inactive: 15.7%
8 | COc1ccc(NC(=O)CN2CCN(c3ccccn3)CC2)cc1Cl | inactive: 12.7%
9 | O=C1NCCCC2c3cc(O)c4ccccc4c3OC12N1CCCCC1 (stereo unspecified) | inactive: -0.99%
10 | CCOC(=O)C1CCCN(C(=O)c2ccc(Cl)c(S(=O)(=O)N3CCCCCC3)c2)C1 (stereo unspecified) | inconclusive: 36.9%
11 | CN(c1ccccc1C(=O)NC1CC2CCC1C2)S(=O)(=O)c1ccccc1 (stereo unspecified) | inconclusive: 32.5%
12 | NC(=O)c1ccccc1NC(=O)CCc1ccccc1 | inconclusive: 44.4%
13 | N#C/C(=C\c1cccnc1)c1ccc(Br)cc1 | inconclusive: 69.8%
14 | COc1cc(C(=O)NCC2(c3ccccc3)CCCC2)cc(OC)c1OC | inconclusive: 30.9%
15 | O=C(C1CCCC1)N1CCCC(Nc2ccccc2)C1 (stereo unspecified) | inconclusive: 56%
16 | O=C(CSc1nc2c(c(C(F)(F)F)n1)CCc1ccccc1-2)NCc1ccco1 | inconclusive: 49.6%
17 | CC1=NN(C(=O)c2ccccc2Cl)C(O)(c2cccnc2)C1 (stereo unspecified) | inactive: 1.44%
18 | O=C(CNS(=O)(=O)c1ccccc1)N1CCc2ccccc2C1 | inactive: 13%
19 | CC(C)c1nc(N2CCOCC2)c(C#N)c2c1CCC2 | inactive: 16.7%
20 | O=C(NC1CCCC1)c1cccc(Oc2ccccc2)c1 | inconclusive: 33.9%
21 | O=C(CC12CC3CC(CC(C3)C1)C2)N/N=C/c1ccncc1 | inconclusive: 52.2%
22 | C(=N\Nc1nc(N2CCCC2)nc(N2CCCC2)n1)/c1cccnc1 | inconclusive: 74.1%
23 | CC(C)c1ccc(/C=C2\SC(=O)N(CC(=O)NC3CCS(=O)(=O)C3)C2=O)cc1 (stereo unspecified) | inconclusive: 42.5%
24 | O=C(NCCC1=CCCCC1)c1ccc([N+](=O)[O-])cc1 | active: 88.9%
25 | O=c1oc2ccccc2c(O)c1Cc1cc(Cl)c2cccnc2c1O | inconclusive: 31.1%
26 | CC(=O)Oc1ccc2c(C)c(CC(C)O)c(=O)oc2c1 (stereo unspecified) | inconclusive: 35.2%

Taken from above:
Entry for `NC(=O)c1ccccc1NC(=O)CCc1ccccc1` under activation: inconclusive: 44.4%
Entry for `CC(C)c1ccc(/C=C2\SC(=O)N(CC(=O)NC3CCS(=O)(=O)C3)C2=O)cc1` (stereo unspecified) under activation: inconclusive: 42.5%
